Laboratory results: PubChem BioAssay AID1224830 (NIAID, 2016)
Purpose: 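Host factors that control LPS-induced TNF expression in human macrophages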 (primary screen). Cell system: human THP-1 monocytic leukaemia cells, TNF dual-luciferase reporter clone, PMA-differentiated to macrophage-like cells. Knock-down reagent: siRNA pool against human genes, 50 nM. Duration: LPS for 4 h, given about 3 days after siRNA transfection. Treatment: bacterial LPS (TLR4 ligand), 10 ng/ml. Measured: 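TNF firefly reporter luminescence divided by renilla, normalised to the plate median, then turned into a robust z-score for each replicate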. Reading the numbers: TNF reporter robust z-score: higher = stronger TNF reporter response to LPS. Call rule: 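a well is active when its z-score exceeds 2.8 or falls below -1.5; control wells carry no call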.
The deposit covers about 18,000 reagents; below is an unselected part. About 2,900 of them (16%) count as active. 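Calls are made per well; low scores hint the gene aids the LPS response, high scores that it dampens it.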 Entries without a mark were called inactive. Repeated entries: four replicate wells of each siRNA pool.

USF1 scored TNF reporter robust z-score 0.57.
Knock-down of USF1 gave: TNF reporter robust z-score 1.01.
With knock-down of USF1, the record shows TNF reporter robust z-score 0.47.
After knock-down of USF1 the results were TNF reporter robust z-score 0.04.
For NOX4, the entry reads TNF reporter robust z-score 1.7.
NOX4 scored TNF reporter robust z-score 2.18.
For NOX4, the values are TNF reporter robust z-score 0.79.
NOX4 showed TNF reporter robust z-score 2.31.
For MRPL47 the deposit lists TNF reporter robust z-score 0.54.
MRPL47 gave TNF reporter robust z-score 1.61.
For MRPL47, the entry reads TNF reporter robust z-score 0.96.
MRPL47 gave TNF reporter robust z-score 0.19.
SEPTIN2 scored TNF reporter robust z-score 0.2.
Knock-down of SEPTIN2 came out at: TNF reporter robust z-score 0.14.
After knock-down of SEPTIN2, the record shows TNF reporter robust z-score -0.03.
Depletion of SEPTIN2 gave: TNF reporter robust z-score 0.76.
Silencing of CENATAC gave: TNF reporter robust z-score 0.75.
With knock-down of CENATAC, the screen gave TNF reporter robust z-score 3.26 (active).
Against CENATAC the deposit lists TNF reporter robust z-score 2.11.
After knock-down of CENATAC, the record shows TNF reporter robust z-score -0.29.

Reformatted: results already given
target | TNF reporter robust z-score
USF1 | 0.57
USF1 | 1.01
USF1 | 0.47
USF1 | 0.04

Continued.
For LSM10, the values are TNF reporter robust z-score 0.09.
Against LSM10, the entry reads TNF reporter robust z-score -1.19.
After knock-down of LSM10, the screen gave TNF reporter robust z-score -1.03.
For LSM10, the values are TNF reporter robust z-score 0.02.
ANKRD10 scored TNF reporter robust z-score -0.93.
Silencing of ANKRD10 came out at: TNF reporter robust z-score -0.32.
Against ANKRD10, the entry reads TNF reporter robust z-score -1.11.
ANKRD10 scored TNF reporter robust z-score -0.65.
With knock-down of ZNF69, the screen gave TNF reporter robust z-score -0.32.
After knock-down of ZNF69, the record shows TNF reporter robust z-score 0.21.
Silencing of ZNF69 came out at: TNF reporter robust z-score -0.31.
For ZNF69, the entry reads TNF reporter robust z-score 0.25.
